Source: article PMC6857042
These are yes or no findings as the source states them, for the method shown. Binding seen in cells or lysates may run through a third protein. Some binding calls cover weakened binding; strength is not graded here. For some of these results: Sequences can lack the tags named with a protein. Each block holds one binder with its values, some of them ahead of it.

Columns and labels:
HA-tagged CACYBP (human) = HA-tagged CACYBP (human) (UniProt Q9HB71); assay: co-IP; anti-HA agarose on lysates of 293T cells co-transfected with Flag- and HA-tagged proteins; NETN buffer; western blotting
[1] = target: HA-tagged CACYBP C-terminus mutant (CACYBP-CT) (human) (UniProt Q9HB71); assay: as above
[2] = target: T1, HA-tagged CACYBP N-terminus mutant (CACYBP-NT) (human) (UniProt Q9HB71); assay: as above
T1 sequence: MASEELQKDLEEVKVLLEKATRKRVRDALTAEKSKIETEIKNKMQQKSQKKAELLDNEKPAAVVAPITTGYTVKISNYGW

[3] = target: endogenous CACYBP (Huh7) (human (endogenous in Huh7)) (UniProt Q9HB71); assay: co-IP; endogenous proteins, Huh7 cell extract, anti-CACYBP antibody, rabbit normal IgG as control; NETN buffer; western blotting with anti-CACYBP or anti-RNF41

binding (HA-tagged CACYBP (human)): binds
binding [1]: no binding
binding [2]: no binding
B1: Flag-tagged RNF41 (RING finger protein 41) (protein, UniProt Q9H4P4 1-317)
chain: MGYDVTRFQGDVDEDLICPICSGVLEEPVQAPHCEHAFCNACITQWFSQQQTCPVDRSVVTVAHLRPVPRIMRNMLSKLQIACDNAVFGCSAVVRLDNLMSHLSDCEHNPKRPVTCEQGCGLEMPKDELPNHNCIKHLRSVVQQQQTRIAELEKTSAEHKHQLAEQKRDIQLLKAYMRAIRSVNPNLQNLEETIEYNEILEWVNSLQPARVTRWGGMISTPDAVLQAVIKRSLVESGCPASIVNELIENAHERSWPQGLATLETRQMNRRYYENYVAKRIPGKQAVVVMACENQHMGDDMVQEPGLVMIFAHGVEEI

binding [3]: binds
B2: endogenous RNF41 (Huh7) (protein, UniProt Q9H4P4 1-317)
chain: B1 chain
